At least one structure is not confirmed: it was looked up by name or label, or the drawing left a doubt.
How the values were obtained:
[1] = tested on: monolayer cultured rat chondrocytes transfected with pXGH5; assay: Dexamethasone treatment of monolayer transfected chondrocytes, effect on hGH release; assay type: cell-based; conditions: Dex at all concentrations tested (0.1 μM, 0.01 μM and 0.001 μM), 24 hours exposure (FIG. 3)
[2] = tested on: pellet cultured rat chondrocytes transfected with pXGH5; assay: Dexamethasone treatment of 3-D pellet cultured transfected chondrocytes, effect on hGH release; assay type: cell-based; conditions: pellet culture, 5.2×10^5 cells per pellet, Dex at 0.1 μM and 0.01 μM, 24 hours exposure (FIG. 4)

Compound: C[C@@H]1C[C@H]2[C@@H]3CCC4=CC(=O)C=C[C@]4(C)[C@@]3(F)[C@@H](O)C[C@]2(C)[C@@]1(O)C(=O)CO [Dex, Dexamethasone]
- effect on production of hGH [1]: increased the production of hGH
- effect on hGH concentration in the medium compared to controls [2]: maintained a higher hGH concentration
